This passage reports binding results from patent publication US20190300875A1.

Amino acid sequences for entries named in this document (tags omitted). A change or cut given only in a name is not applied to a line headed by its entry.
UniProt O77059: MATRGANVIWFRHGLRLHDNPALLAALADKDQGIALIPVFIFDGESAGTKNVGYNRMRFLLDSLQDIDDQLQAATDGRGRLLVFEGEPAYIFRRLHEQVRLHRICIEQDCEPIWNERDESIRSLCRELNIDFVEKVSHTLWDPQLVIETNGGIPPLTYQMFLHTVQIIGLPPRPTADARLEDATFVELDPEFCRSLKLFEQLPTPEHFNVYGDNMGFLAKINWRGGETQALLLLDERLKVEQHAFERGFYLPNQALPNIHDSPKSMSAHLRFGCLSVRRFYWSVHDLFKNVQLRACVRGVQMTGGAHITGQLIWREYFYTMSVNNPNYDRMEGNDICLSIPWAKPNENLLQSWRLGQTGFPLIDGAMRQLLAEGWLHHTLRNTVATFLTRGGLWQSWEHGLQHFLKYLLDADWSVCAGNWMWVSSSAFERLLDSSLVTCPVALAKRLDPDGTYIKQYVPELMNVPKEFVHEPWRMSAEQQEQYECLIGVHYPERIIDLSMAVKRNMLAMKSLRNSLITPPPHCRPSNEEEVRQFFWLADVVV
UniProt Q96524: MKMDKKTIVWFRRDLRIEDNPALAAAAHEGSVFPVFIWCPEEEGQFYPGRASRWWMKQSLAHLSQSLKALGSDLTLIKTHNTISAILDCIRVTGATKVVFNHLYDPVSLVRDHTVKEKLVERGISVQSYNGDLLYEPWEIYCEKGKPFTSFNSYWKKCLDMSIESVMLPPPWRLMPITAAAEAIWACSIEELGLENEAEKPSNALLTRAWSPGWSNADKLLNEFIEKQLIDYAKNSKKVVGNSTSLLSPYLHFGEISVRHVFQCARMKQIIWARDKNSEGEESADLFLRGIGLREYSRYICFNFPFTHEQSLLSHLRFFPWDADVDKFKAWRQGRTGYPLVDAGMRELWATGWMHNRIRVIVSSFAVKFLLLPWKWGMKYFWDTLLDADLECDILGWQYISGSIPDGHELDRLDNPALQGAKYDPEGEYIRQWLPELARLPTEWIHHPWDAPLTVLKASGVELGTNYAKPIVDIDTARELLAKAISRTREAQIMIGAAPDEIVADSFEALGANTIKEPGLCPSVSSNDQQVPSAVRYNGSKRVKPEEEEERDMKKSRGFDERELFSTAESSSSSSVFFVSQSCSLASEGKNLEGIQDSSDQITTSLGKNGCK

In test [1] the target is T1, SPA1 (UniProt Q9SYX2).
T1 sequence (looked up): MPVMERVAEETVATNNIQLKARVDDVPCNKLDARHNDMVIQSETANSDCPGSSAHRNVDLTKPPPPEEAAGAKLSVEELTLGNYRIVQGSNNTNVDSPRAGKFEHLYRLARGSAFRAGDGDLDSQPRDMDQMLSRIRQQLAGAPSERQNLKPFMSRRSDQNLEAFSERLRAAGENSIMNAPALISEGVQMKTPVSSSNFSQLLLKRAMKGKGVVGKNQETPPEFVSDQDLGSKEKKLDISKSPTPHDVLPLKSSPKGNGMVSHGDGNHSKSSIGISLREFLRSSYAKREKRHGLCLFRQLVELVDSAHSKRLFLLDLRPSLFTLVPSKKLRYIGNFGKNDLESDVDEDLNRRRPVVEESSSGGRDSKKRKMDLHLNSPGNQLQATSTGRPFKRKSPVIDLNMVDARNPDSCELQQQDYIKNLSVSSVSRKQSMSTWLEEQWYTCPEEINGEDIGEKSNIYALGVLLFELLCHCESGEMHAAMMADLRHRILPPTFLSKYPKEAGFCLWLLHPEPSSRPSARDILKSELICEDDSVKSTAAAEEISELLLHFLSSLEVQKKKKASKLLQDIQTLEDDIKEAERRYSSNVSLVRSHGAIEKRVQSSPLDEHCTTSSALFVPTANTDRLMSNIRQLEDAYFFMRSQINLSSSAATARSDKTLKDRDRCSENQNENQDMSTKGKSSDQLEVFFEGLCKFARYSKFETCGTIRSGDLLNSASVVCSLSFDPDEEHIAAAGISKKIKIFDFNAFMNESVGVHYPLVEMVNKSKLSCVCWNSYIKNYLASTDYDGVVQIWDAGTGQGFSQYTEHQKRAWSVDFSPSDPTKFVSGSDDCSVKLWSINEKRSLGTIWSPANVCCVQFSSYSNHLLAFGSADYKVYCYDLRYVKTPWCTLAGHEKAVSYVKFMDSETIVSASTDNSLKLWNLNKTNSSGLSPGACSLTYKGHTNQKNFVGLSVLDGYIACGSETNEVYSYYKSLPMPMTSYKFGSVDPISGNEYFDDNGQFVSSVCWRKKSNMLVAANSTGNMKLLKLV
Briefly: yeast β-gal assay, dark or blue light (FIG. 5H).

Test [2] deals with Drosophila dCRY (Drosophila) (UniProt O77059). Briefly: co-IP (Flag-CRY with Myc-CRY) and qCo-IP (FLUC-CRY with REN-CRY) in HEK293T cells, blue light against dark (FIG. 10).

These are yes or no findings as the source states them, for the method shown. For some assays here: In cells and extracts the contact can be indirect. Some binding calls cover weakened binding; strength is not graded here.

For the substance “Arabidopsis cryptochrome 2 (CRY2) (from UniProt Q96524 1-612) (receptor)”, the binding entry in test [1] is “binds”.

In the case of “Drosophila dCRY (from UniProt O77059 1-542) (receptor)”, the binding entry in test [2] is on record as “binds”.
